Assay results reported in the supplement of paper PMC10849652.
This is one part of the list.

Chains of the proteins cited; added tags and fusions are not shown. Lines headed by an entry give the natural chain unless they say otherwise; changes in a name come on top.
UniProt Q8TEX9: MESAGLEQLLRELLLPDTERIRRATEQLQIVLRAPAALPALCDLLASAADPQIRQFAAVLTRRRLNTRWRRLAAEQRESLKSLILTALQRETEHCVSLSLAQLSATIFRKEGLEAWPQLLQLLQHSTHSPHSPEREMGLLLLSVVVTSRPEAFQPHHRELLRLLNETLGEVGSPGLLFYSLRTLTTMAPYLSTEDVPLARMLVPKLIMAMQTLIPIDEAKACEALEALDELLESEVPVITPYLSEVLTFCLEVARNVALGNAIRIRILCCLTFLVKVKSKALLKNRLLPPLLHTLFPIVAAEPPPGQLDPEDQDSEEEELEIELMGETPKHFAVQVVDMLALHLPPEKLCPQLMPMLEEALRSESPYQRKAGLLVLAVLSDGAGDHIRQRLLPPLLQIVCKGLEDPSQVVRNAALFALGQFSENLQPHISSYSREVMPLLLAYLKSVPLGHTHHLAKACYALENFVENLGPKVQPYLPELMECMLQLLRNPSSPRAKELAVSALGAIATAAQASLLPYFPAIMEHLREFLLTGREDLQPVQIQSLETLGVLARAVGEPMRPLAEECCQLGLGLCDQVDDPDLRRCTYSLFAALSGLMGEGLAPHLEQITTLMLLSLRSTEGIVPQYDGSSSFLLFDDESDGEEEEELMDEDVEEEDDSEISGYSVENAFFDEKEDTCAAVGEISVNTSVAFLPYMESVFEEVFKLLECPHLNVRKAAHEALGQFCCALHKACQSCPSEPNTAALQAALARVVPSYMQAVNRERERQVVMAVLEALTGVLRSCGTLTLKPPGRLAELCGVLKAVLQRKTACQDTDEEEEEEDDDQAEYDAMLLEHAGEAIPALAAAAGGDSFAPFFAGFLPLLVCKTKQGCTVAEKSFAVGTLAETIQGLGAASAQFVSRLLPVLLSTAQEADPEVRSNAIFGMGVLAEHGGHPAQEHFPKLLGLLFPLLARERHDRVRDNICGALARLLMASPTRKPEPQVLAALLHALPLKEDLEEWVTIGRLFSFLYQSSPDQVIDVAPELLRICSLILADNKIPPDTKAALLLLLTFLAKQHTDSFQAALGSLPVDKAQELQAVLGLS
UniProt Q7LBC6: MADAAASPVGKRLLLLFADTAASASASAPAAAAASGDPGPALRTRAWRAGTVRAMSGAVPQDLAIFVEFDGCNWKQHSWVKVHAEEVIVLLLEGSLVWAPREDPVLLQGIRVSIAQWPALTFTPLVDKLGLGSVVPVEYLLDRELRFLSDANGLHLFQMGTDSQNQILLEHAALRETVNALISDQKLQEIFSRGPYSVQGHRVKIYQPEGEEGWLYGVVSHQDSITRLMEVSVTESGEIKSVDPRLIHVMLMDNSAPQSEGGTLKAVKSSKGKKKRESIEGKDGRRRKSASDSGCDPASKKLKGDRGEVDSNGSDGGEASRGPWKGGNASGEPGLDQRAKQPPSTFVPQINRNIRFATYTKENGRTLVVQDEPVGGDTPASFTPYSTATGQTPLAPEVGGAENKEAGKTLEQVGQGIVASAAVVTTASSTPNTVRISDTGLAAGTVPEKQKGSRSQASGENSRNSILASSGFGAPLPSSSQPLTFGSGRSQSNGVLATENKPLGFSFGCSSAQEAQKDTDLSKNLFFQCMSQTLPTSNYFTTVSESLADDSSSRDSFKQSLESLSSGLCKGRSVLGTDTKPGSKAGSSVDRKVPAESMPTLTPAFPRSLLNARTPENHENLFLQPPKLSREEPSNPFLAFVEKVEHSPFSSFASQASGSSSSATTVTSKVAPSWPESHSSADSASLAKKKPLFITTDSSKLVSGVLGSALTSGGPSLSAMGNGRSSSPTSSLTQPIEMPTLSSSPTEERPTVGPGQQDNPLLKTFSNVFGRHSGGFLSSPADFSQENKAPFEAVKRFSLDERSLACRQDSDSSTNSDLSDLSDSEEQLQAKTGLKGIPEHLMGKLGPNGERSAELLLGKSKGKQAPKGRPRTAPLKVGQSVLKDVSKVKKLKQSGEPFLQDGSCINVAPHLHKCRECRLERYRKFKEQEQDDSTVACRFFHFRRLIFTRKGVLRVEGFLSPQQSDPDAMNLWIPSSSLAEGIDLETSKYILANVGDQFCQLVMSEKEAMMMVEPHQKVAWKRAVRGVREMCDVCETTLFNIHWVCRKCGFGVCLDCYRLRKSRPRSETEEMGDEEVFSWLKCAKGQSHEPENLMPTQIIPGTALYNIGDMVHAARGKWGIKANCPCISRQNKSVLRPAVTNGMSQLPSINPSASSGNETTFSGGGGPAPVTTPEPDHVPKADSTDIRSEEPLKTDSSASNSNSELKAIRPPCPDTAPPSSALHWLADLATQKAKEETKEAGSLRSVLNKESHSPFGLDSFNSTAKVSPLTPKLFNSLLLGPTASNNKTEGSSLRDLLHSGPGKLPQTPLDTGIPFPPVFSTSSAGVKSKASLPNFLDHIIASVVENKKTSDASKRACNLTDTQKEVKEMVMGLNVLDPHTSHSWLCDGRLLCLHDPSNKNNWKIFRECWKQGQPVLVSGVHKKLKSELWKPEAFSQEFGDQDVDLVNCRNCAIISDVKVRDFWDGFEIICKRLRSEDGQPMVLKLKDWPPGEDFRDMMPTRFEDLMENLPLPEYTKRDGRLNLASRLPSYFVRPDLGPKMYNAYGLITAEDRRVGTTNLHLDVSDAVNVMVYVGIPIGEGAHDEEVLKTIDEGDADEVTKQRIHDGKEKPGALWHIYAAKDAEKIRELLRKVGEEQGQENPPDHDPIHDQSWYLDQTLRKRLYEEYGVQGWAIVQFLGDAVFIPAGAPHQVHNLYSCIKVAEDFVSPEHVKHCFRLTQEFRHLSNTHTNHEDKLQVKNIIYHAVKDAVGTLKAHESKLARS
UniProt Q8IU81: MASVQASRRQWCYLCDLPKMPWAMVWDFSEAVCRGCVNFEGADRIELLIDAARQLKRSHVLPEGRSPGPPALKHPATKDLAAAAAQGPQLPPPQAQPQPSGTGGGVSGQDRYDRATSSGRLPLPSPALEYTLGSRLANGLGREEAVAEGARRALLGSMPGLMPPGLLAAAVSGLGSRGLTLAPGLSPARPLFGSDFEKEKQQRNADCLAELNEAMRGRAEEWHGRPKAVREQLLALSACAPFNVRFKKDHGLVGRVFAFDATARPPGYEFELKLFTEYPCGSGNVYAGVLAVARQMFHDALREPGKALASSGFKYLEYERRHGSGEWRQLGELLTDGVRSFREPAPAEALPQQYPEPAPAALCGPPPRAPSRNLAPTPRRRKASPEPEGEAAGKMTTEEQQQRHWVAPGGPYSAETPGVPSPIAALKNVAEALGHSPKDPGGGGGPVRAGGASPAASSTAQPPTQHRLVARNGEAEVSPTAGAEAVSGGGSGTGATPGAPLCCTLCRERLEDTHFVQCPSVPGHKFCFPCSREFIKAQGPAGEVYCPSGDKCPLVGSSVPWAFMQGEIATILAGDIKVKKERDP
UniProt Q9BUE6: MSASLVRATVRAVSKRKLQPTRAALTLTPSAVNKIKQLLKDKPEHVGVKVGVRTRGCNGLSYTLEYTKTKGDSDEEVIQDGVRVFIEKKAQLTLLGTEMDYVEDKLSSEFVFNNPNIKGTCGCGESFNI
UniProt Q9NXV2: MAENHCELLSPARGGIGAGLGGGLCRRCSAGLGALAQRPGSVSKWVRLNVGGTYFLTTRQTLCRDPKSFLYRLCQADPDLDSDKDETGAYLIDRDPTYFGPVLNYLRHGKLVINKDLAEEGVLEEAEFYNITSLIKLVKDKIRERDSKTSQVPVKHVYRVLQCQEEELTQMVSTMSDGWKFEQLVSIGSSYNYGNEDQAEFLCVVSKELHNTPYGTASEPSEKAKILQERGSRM
UniProt O75449: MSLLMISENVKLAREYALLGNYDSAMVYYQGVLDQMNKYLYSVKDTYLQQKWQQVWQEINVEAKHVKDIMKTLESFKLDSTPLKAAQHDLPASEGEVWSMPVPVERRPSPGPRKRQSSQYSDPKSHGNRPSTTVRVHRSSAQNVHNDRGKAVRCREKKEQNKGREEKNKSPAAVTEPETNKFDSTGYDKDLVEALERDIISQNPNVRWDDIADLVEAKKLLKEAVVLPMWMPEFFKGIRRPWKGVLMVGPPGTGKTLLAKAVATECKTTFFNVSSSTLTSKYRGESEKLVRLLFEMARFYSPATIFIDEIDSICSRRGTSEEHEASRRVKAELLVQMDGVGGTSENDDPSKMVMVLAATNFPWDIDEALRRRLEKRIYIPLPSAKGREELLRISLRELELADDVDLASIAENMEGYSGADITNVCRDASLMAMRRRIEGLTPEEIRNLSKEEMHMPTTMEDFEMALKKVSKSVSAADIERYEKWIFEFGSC
UniProt Q68E01, whole entry, looked up: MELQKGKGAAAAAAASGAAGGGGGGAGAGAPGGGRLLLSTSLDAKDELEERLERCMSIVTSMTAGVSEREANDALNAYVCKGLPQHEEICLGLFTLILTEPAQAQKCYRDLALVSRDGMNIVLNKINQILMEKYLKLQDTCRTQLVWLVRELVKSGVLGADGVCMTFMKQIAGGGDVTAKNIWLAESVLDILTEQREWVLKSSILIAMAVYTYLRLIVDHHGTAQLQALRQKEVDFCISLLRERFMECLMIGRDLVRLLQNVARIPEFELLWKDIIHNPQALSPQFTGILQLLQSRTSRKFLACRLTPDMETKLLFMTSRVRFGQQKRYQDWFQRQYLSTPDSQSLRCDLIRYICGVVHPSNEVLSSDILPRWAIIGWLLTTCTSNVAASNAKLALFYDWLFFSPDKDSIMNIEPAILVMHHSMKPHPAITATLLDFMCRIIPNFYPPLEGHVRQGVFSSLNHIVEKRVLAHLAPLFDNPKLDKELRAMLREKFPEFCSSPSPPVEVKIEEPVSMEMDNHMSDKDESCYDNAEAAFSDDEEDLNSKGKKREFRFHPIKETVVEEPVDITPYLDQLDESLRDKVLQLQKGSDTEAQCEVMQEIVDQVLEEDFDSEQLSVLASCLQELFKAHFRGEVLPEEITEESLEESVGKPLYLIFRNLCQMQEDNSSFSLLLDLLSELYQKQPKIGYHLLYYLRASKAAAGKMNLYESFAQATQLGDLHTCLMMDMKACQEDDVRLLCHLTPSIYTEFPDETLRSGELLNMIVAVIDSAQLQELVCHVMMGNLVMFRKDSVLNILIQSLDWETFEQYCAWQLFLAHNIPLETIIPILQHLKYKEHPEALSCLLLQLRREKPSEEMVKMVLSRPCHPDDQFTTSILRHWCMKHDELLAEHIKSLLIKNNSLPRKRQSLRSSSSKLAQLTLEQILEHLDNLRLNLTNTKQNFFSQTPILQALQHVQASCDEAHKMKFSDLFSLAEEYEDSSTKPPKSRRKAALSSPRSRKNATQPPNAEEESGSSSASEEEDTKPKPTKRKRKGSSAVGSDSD
UniProt Q9BVA0, whole entry, looked up: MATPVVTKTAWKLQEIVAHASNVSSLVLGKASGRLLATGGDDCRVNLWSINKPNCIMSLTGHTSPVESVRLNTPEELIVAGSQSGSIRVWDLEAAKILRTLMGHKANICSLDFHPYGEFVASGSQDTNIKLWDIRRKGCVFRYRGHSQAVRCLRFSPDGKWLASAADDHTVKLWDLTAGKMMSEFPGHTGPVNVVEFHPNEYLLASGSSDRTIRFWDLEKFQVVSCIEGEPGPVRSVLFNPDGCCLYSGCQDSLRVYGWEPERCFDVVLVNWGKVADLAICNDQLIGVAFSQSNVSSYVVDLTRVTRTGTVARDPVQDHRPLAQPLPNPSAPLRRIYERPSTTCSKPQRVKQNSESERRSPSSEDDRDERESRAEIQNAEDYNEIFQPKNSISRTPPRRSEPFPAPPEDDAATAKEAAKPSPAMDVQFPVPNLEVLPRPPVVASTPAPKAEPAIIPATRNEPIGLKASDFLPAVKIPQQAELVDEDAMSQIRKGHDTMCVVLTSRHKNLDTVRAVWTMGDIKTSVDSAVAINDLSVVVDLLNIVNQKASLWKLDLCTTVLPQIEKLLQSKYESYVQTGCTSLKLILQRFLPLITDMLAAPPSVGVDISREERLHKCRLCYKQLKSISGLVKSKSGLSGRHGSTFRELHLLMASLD
UniProt Q9P0J7: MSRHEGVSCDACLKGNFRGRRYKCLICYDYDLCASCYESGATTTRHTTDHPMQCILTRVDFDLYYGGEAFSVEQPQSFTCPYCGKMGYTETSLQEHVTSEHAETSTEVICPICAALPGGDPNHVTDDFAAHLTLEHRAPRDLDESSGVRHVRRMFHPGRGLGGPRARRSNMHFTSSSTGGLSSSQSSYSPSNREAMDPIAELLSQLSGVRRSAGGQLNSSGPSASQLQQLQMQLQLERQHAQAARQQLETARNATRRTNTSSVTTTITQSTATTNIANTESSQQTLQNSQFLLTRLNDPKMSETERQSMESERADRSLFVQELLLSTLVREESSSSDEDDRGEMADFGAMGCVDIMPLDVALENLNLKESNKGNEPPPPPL

How the values were obtained:
Assay in all cases: log2 fold change, soluble protein after heating vs DMSO (PISA); higher = thermal stabilisation; K562 lysate, 10 uM; active = over 0.2 and 3.5 SD of the protein, either way, in both replicates (recomputed)
lapatinib = compound: CS(=O)(=O)CCNCc1ccc(-c2ccc3ncnc(Nc4ccc(OCc5cccc(F)c5)c(Cl)c4)c3c2)o1 [lapatinib]
Procedure, shortened: (§1)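 Soluble protein was defined as the supernatant remaining after 21,000xg for 90 min, following pooling of heated aliquots and adjustment to 0.5% NP-40 at 4°C. Before that, crude K562 extract at 1 mg/mL protein in PBS pH 7.4 with 1 mM MgCl2 was treated with 10 μM compound for 30 min and heated for 3 min across 48°C-58°C. Quantification used TMTpro 16plex LC-MS/MS with channel sums equalised, and values are log-two fold changes in thermal stability relative to solvent controls from duplicates.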

pictilisib = compound: CS(=O)(=O)N1CCN(Cc2cc3nc(-c4cccc5[nH]ncc45)nc(N4CCOCC4)c3s2)CC1 [pictilisib]
Procedure, shortened: as §1

crizotinib = compound: C[C@@H](Oc1cc(-c2cnn(C3CCNCC3)c2)cnc1N)c1c(Cl)ccc(F)c1Cl [crizotinib]
Procedure, shortened: as §1

[1] = compound: C[C@H](C1=CC=C(C=C1)C(=O)NC2=C3C=CNC3=NC=C2)N
Procedure, shortened: as §1

duvelisib = compound: C[C@H](Nc1ncnc2nc[nH]c12)c1cc2cccc(Cl)c2c(=O)n1-c1ccccc1 [duvelisib]
Procedure, shortened: as §1

gandotinib = compound: Cc1cc(Nc2cc(CN3CCOCC3)c3nc(C)c(Cc4ccc(Cl)cc4F)n3n2)n[nH]1 [gandotinib]
Procedure, shortened: as §1

tozasertib = compound: Cc1cc(Nc2cc(N3CCN(C)CC3)nc(Sc3ccc(NC(=O)C4CC4)cc3)n2)n[nH]1 [tozasertib]
Procedure, shortened: as §1

doramapimod = compound: Cc1ccc(-n2nc(C(C)(C)C)cc2NC(=O)Nc2ccc(OCCN3CCOCC3)c3ccccc23)cc1 [doramapimod]
Procedure, shortened: as §1

bafetinib = compound: Cc1ccc(NC(=O)c2ccc(CN3CC[C@H](N(C)C)C3)c(C(F)(F)F)c2)cc1Nc1nccc(-c2cncnc2)n1 [bafetinib]
Procedure, shortened: as §1

[2] = compound: Cc1cccc(CC(=O)N2CCc3c2ccc(-c2cn(C)c4ncnc(N)c24)c3F)n1
Procedure, shortened: as §1

nilotinib = compound: Cc1cn(-c2cc(NC(=O)c3ccc(C)c(Nc4nccc(-c5cccnc5)n4)c3)cc(C(F)(F)F)c2)cn1 [nilotinib]
Procedure, shortened: as §1

[3] = compound: Cc1nc(Nc2n[nH]c3c2CN(C(=O)N[C@H](CN(C)C)c2ccccc2)C3(C)C)c2sccc2n1
Procedure, shortened: as §1

dasatinib = compound: Cc1nc(Nc2ncc(C(=O)Nc3c(C)cccc3Cl)s2)cc(N2CCN(CCO)CC2)n1 [dasatinib]
Procedure, shortened: as §1

[4] = compound: Cc1ncc(-c2ccnc(Nc3ccc(S(C)(=O)=O)cc3)n2)n1C(C)C
Procedure, shortened: as §1

[5] = compound: Cn1cc(-c2ccc3c(c2)CCN3C(=O)Cc2cccc(C(F)(F)F)c2)c2c(N)ncnc21
Procedure, shortened: as §1

quisinostat = compound: Cn1cc(CNCC2CCN(c3ncc(C(=O)NO)cn3)CC2)c2ccccc21 [quisinostat]
Procedure, shortened: as §1

tipifarnib = compound: Cn1cncc1[C@@](N)(c1ccc(Cl)cc1)c1ccc2c(c1)c(-c1cccc(Cl)c1)cc(=O)n2C [tipifarnib]
Procedure, shortened: as §1

[6] = compound: NC(=O)Nc1cc(-c2cccc(F)c2)sc1C(=O)N[C@H]1CCCNC1
Procedure, shortened: as §1

[7] = compound: NC(=O)c1cnc(N[C@@H]2CCCC[C@@H]2N)nc1Nc1cccc(-n2nccn2)c1
Procedure, shortened: as §1

[8] = compound: NC1(c2ccc(-c3nc4ccn5c(=O)[nH]nc5c4cc3-c3ccccc3)cc2)CCC1
Procedure, shortened: as §1

Measured: log2 fold change

IPO4 isoform 2 (UniProt Q8TEX9)
inactive: lapatinib -0.003 | pictilisib -0.014 | crizotinib -0.027 | [1] -0.065 | duvelisib 0.019 | gandotinib 0.045 | tozasertib 0.002 | doramapimod 0.032 | bafetinib 0.025 | [2] 0.017 | nilotinib 0.048 | [3] -0.011 | dasatinib 0.035 | [4] 0.001 | [5] 0.027 | quisinostat -0.061 | tipifarnib -0.011 | [6] -0.009 | [7] 0.012 | [8] 0.009

ITGAV (UniProt P06756)
inactive: lapatinib -0.015 | pictilisib 0.003 | crizotinib -0.005 | [1] -0.054 | duvelisib -0.007 | gandotinib 0.001 | tozasertib 0.012 | doramapimod 0.014 | bafetinib 0 | [2] 0.011 | nilotinib 0.048 | [3] 0 | dasatinib 0.046 | [4] -0.001 | [5] -0.004 | quisinostat -0.012 | tipifarnib -0.02 | [6] -0.005 | [7] 0.007 | [8] 0.01

KDM3B (UniProt Q7LBC6)
inactive: lapatinib 0.02 | pictilisib -0.012 | crizotinib -0.002 | [1] -0.07 | duvelisib -0.022 | gandotinib 0.025 | tozasertib 0.006 | doramapimod -0.036 | bafetinib -0.074 | [2] 0.117 | nilotinib -0.021 | [3] -0.012 | dasatinib -0.041 | [4] 0.008 | [5] -0.019 | quisinostat -0.021 | tipifarnib -0.041 | [6] 0.026 | [7] 0.007 | [8] 0.013

IRF2BP1 (UniProt Q8IU81)
inactive: lapatinib -0.01 | pictilisib 0.008 | crizotinib -0.052 | [1] -0.004 | duvelisib -0.086 | gandotinib 0.004 | tozasertib 0 | doramapimod 0.105 | bafetinib -0.1 | [2] 0.043 | nilotinib 0.018 | [3] 0.016 | dasatinib -0.082 | [4] -0.019 | [5] 0.032 | quisinostat -0.099 | tipifarnib -0.124 | [6] 0.057 | [7] -0.03 | [8] 0.045

ISCA1 isoform 2 (UniProt Q9BUE6)
inactive: lapatinib 0.054 | pictilisib -0.08 | crizotinib -0.011 | duvelisib 0.012 | gandotinib -0.132 | tozasertib -0.004 | doramapimod 0.011 | bafetinib 0.067 | [2] -0.223 | nilotinib 0.043 | [3] 0.251 | dasatinib 0 | [4] 0.111 | [5] -0.002 | quisinostat 0.025 | tipifarnib 0.026 | [6] -0.05 | [7] -0.007 | [8] 0.013
active: [1] 0.343

KCTD2 (UniProt Q14681)
inactive: lapatinib -0.001 | pictilisib -0.12 | crizotinib -0.135 | [1] 0.426 | duvelisib -0.069 | gandotinib 0.042 | tozasertib -0.215 | doramapimod 0.032 | bafetinib 0.045 | [2] -0.067 | nilotinib 0.001 | [3] 0.061 | dasatinib 0.002 | [4] -0.023 | [5] 0.033 | quisinostat -0.061 | tipifarnib -0.081 | [6] -0.158 | [7] -0.116

KCTD5 (UniProt Q9NXV2)
inactive: lapatinib 0.009 | pictilisib 0.019 | crizotinib 0.018 | [1] -0.014 | duvelisib 0.046 | gandotinib 0.041 | tozasertib 0.037 | doramapimod 0.02 | bafetinib 0.012 | [2] 0.059 | nilotinib -0.009 | [3] 0.071 | dasatinib -0.092 | [4] 0.066 | [5] -0.024 | quisinostat 0.019 | tipifarnib -0.04 | [6] 0.02 | [7] 0.098 | [8] -0.1

KATNA1 (UniProt O75449)
inactive: lapatinib 0.023 | pictilisib -0.013 | crizotinib -0.031 | [1] 0.017 | duvelisib 0.043 | gandotinib -0.088 | tozasertib 0.021 | doramapimod -0.031 | bafetinib -0.065 | [2] 0.013 | nilotinib 0 | [3] 0.015 | dasatinib 0.003 | [4] -0.053 | [5] 0.016 | quisinostat -0.01 | tipifarnib -0.032 | [6] 0.042 | [7] -0.001 | [8] 0.057

INTS3 (UniProt Q68E01)
inactive: lapatinib -0.05 | pictilisib -0.005 | crizotinib -0.016 | [1] 0.02 | duvelisib -0.005 | gandotinib -0.104 | tozasertib 0.018 | doramapimod 0.106 | bafetinib -0.07 | [2] -0.052 | nilotinib -0.007 | [3] 0.007 | dasatinib -0.05 | [4] -0.045 | [5] 0.005 | quisinostat -0.038 | tipifarnib 0.09 | [6] 0.028 | [7] -0.002 | [8] -0.028

KCTD10 (UniProt Q9H3F6)
inactive: lapatinib 0.005 | pictilisib 0 | crizotinib -0.016 | [1] 0.139 | duvelisib 0.116 | gandotinib -0.074 | tozasertib 0.028 | doramapimod 0.003 | bafetinib -0.078 | [2] -0.102 | nilotinib 0.039 | [3] 0.003 | dasatinib -0.021 | [4] -0.021 | [5] -0.038 | quisinostat 0.02 | tipifarnib -0.065 | [6] -0.009 | [7] 0.052 | [8] -0.106

ITGB5 (UniProt P18084)
inactive: lapatinib 0.014 | pictilisib -0.019 | crizotinib 0.019 | [1] 0.014 | duvelisib 0.033 | gandotinib 0.02 | tozasertib 0.046 | doramapimod 0.01 | bafetinib 0.027 | [2] -0.012 | nilotinib -0.052 | [3] 0.04 | dasatinib 0.001 | [4] 0.065 | [5] -0.065 | quisinostat 0.085 | tipifarnib 0.083 | [6] 0.004 | [7] -0.038 | [8] 0.013

KATNB1 (UniProt Q9BVA0)
inactive: lapatinib -0.009 | pictilisib 0.013 | crizotinib -0.021 | [1] 0.051 | duvelisib 0.016 | gandotinib -0.042 | tozasertib 0.015 | doramapimod 0.02 | bafetinib -0.011 | [2] 0.014 | nilotinib 0.119 | [3] -0.052 | dasatinib 0.044 | [4] 0.057 | [5] 0.018 | quisinostat -0.102 | tipifarnib -0.055 | [6] 0.027 | [7] 0.014 | [8] 0.008

ITSN1 isoform 8 (UniProt Q15811)
inactive: lapatinib -0.006 | pictilisib -0.073 | crizotinib 0.001 | [1] 0.02 | duvelisib 0.031 | gandotinib -0.043 | tozasertib -0.005 | doramapimod 0.003 | bafetinib 0.009 | [2] -0.043 | nilotinib -0.029 | [3] 0.002 | dasatinib -0.035 | [4] 0.036 | [5] 0.023 | quisinostat -0.066 | tipifarnib 0.009 | [6] 0.055 | [7] -0.019 | [8] 0.043

Two neighbouring records out of the list so far:
ITGB5 (UniProt P18084)
inactive: lapatinib 0.014 | pictilisib -0.019 | crizotinib 0.019 | [1] 0.014 | duvelisib 0.033 | gandotinib 0.02 | tozasertib 0.046 | doramapimod 0.01 | bafetinib 0.027 | [2] -0.012 | nilotinib -0.052 | [3] 0.04 | dasatinib 0.001 | [4] 0.065 | [5] -0.065 | quisinostat 0.085 | tipifarnib 0.083 | [6] 0.004 | [7] -0.038 | [8] 0.013

KATNB1 (UniProt Q9BVA0)
inactive: lapatinib -0.009 | pictilisib 0.013 | crizotinib -0.021 | [1] 0.051 | duvelisib 0.016 | gandotinib -0.042 | tozasertib 0.015 | doramapimod 0.02 | bafetinib -0.011 | [2] 0.014 | nilotinib 0.119 | [3] -0.052 | dasatinib 0.044 | [4] 0.057 | [5] 0.018 | quisinostat -0.102 | tipifarnib -0.055 | [6] 0.027 | [7] 0.014 | [8] 0.008

(listing goes on)

IPO5 isoform 3 (UniProt O00410)
inactive: lapatinib -0.011 | pictilisib -0.004 | crizotinib 0.003 | [1] 0.008 | duvelisib 0.017 | gandotinib -0.026 | tozasertib -0.008 | doramapimod 0.001 | bafetinib 0.02 | [2] -0.045 | nilotinib 0.017 | [3] -0.008 | dasatinib -0.013 | [4] -0.002 | [5] 0.001 | quisinostat 0.022 | tipifarnib 0.012 | [6] -0.009 | [7] 0.004 | [8] 0.016

KCMF1 (UniProt Q9P0J7)
inactive: lapatinib -0.015 | pictilisib -0.038 | crizotinib -0.022 | [1] -0.008 | duvelisib 0.075 | gandotinib -0.003 | tozasertib -0.032 | doramapimod 0.04 | bafetinib -0.047 | [2] 0.057 | nilotinib 0.039 | [3] 0.018 | dasatinib -0.061 | [4] -0.025 | [5] -0.016 | quisinostat -0.015 | tipifarnib 0.004 | [6] 0.002 | [7] 0.027 | [8] -0.008
